Screen size: about 52,000 sequences; about 210 (0.4%) were called active.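 Rule for the calls: active = gene whose silencing raises cell survival under the drug, median off-target-corrected z-score across its silencing RNAs 2 or more; inactive = the rest.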 This is one part of the list.
Test: Resistance to Poly (ADP-Ribose) Polymerase inhibitor: Gene Identification via Genome-wide siRNA Screen
Settings: mouse BRCA2 R2336H ES cells, olaparib, CellTiter-Glo viability; hits give high values
Outline: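 Genome-wide siRNA screen (3 siRNAs/gene, 20 nM) in mouse ES cells carrying hypomorphic BRCA2 R2336H; olaparib 500 nM added 48 h post-transfection, CellTiter-Glo viability 72 h later. Normalized to plate-median negative control; MAD z-scores, gene median, seed-adjusted.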

| Sequence | z-score |
| --- | --- |
| GCAGGUGAAGAGUGAUUUUTT against Il10 | inactive: 1.01 |
| GGAUUCAGUGGCUAUCAACTT against Olfr770 | inactive: 1.12 |
| GGAUGAAGAACUCAGAGUGTT against 2310009N05Rik | inactive: 0.143 |
| CCCAUAGCUAAUGAACCAATT against Sntg2 | inactive: -1.9 |
| GCUCAACGGUUUACCCUCATT against Ppp5c | inactive: -1.39 |
| GGACGGCAGAAGUACAAACTT against Esrra | inactive: 0.435 |
| CCUGUAAUGGGAAAUGGCCTT against D7Ertd680e | inactive: 1.12 |
| GGACCAAGGAAUAUUUCCCTT against Serpinb9b | inactive: 0.752 |
| GGUCAUUGGUAGGUCCACUTT against Rusc2 | inactive: 0.741 |
| GCGGAACCUCAAGUUCAGATT against Taf3 | inactive: -0.521 |
| CGUGGAUGAUACCAAAAUGTT against BC055811 | inactive: 0.442 |
| GGGUAACACCUCAAGUUCATT against Rhag | inactive: 2.01 |
| GUGCUUGUGGAGGGUUUCUTT against Ctsg | inactive: 1.59 |
| CCAAGGAAUGUUGUGUUUATT against Osp94 | inactive: -0.82 |
| GGAAUGGUUUUAUUUUUGGTT against 2610024G14Rik | inactive: -0.36 |
| GCCUUUUCCCGUCUGGAGATT against Glis1 | inactive: 1.56 |
| GGGACAGUGUCCCUUCCUUTT against Cox15 | inactive: -1.53 |
| ACUAUCAUGAGUAGGCCCATT against Olfr32 | inactive: 0.878 |
| GCAGCGAGGUUAUCAGUAATT against Sox8 | inactive: -1.16 |
| GCAUUAUGGUAGAAGUGGCTT against 4933407P14Rik | inactive: -1.14 |
| GGAUAGAAACAUCUUGUCUTT against Mcsp | inactive: -0.441 |
| GGUAUGAUGAUUGUUAGAUTT against 6820402O20Rik | inactive: 1.23 |
| GGACUAUGGAACCUUCACCTT against AI256711 | inactive: 2.64 |
| GCGAGAAUCUUUUUGAGCUTT against Rpgrip1 | inactive: -0.554 |
| GGUUUUAUCUGCUCUUCCATT against Cpb2 | inactive: 1.26 |
| CCAAAGACCUAUGUAAGCUTT against Akap1 | inactive: -1.22 |
| GGUUUCAUGUUCUUUCUAATT against Cxcl14 | inactive: -1.34 |

| Sequence | z-score |
| --- | --- |
| GGACACAAUCCAGAACCAGTT against Angpt4 | inactive: -2.77 |
| GCAAACCUGAAGUUUAUGATT against 2510038A11Rik | inactive: 0.323 |
| GUUCCACCAGAUUUUCUAATT against V1rc25 | inactive: 0.825 |
| GGAGAAGUGGAAAAGCAUGTT against Hcls1 | inactive: 2.44 |
| GGGUGUUGUGCGAAAAGAATT against Cxcl1 | inactive: -2.06 |
| GGGAAAGAAGAAACAAGCATT against Rgs18 | inactive: -0.0332 |
| CCUUUGAUAUGGGCACAACTT against Nox3 | inactive: 0.798 |
| GGAUAAUUGGGAUGAUGACTT against Shfdg1 | inactive: -3 |
| GGAAAAGAACAGAAUAUAGTT against Dcc | inactive: -1.82 |
| GGAGCCCAGAACAGAUAAUTT against Chit1 | inactive: 0.18 |
| GCCACAGGCCAAGAUCAUUTT against Pafah1b2 | inactive: 0.256 |
| GGAGGGAGAGUGAAUUGUCTT against Hmgn3 | inactive: -0.746 |
| CUUUUCAUCACGAUCCUCUTT against Olfr998 | inactive: -0.44 |
| GGGUAUCUUCUGGAAAACATT against Angptl4 | inactive: 0.203 |
| GGCCUUCAGUCAAGCAUCATT against Myom1 | inactive: 1.85 |
| GGAAAACCUACCGAAGUUATT against Irf3 | inactive: 0.489 |
| GGAGAUGCCUCACAUGCAGTT against Col8a1 | inactive: -0.0938 |
| GGAUCAAGUGGCUUCUGUGTT against Olfr1099 | inactive: -1.67 |
| GGAGACCUCGAUCACAUCATT against Dutp | inactive: -0.819 |
| GUUUAUGGCCUCCUGUUGCTT against Gpbar1 | inactive: 1.47 |
| CCUUAGGAUCGUCUUAUUATT against Zic2 | inactive: -0.309 |
| GGAACAUCAAUCCAAAUCCTT against 4930432H15Rik | inactive: 0.0472 |
| CCGGUCACCAAAUGACUUATT against D830013H12 | inactive: -0.321 |
| GGUCAUCGUGUGCAACCUCTT against Zcchc3 | inactive: -0.52 |
| CGCAUUUAACUCCUUACUCTT against Slc25a12 | inactive: 1.09 |
| GGAUUACCUGAACAGCGAUTT against Atbf1 | inactive: 0.52 |
| CGUAUAUUUUGGGCCAACATT against Zfp612 | inactive: 0.368 |

| Sequence | z-score |
| --- | --- |
| GGCCAGAAAGGCAGCAAAGTT against Msgn1 | inactive: 1.99 |
| GGUCUAUGCUUUGCUUUACTT against Dmap1 | inactive: -0.815 |
| GGCUUGCUUGUUCAGACACTT against Olfr1324 | inactive: 0.478 |
| GGUGUUGAUCCUAUUAUUUTT against Nup54 | inactive: -2.59 |
| GGCUUCCAAGCAAAAAUCUTT against Krtcap2 | inactive: -0.885 |
| GGUAAAAUUUGACGACACGTT against Klhl6 | inactive: 0.299 |
| CCCAAGUGAACUAAUAAAGTT against Mrps15 | inactive: -0.162 |
| GCUGGUGAACCAAAAACUCTT against Ccdc3 | inactive: -0.0868 |
| GUGUGAACACAAUCAACCUTT against Ifna6 | inactive: -0.925 |
| CCUAACAUUACUGAUGAUUTT against Narg2 | inactive: -1.32 |
| GGACAAGAAGAUAUUACUUTT against Ocln | inactive: -0.48 |
| GGUCUGUAAGCUACCUAAUTT against B430216B18Rik | inactive: 1.53 |
| GGCUUCUAUUGCCAUAAUGTT against Olfr380 | inactive: 0.696 |
| CCAGUGCGUUUGAGAUUGATT against Aanat | inactive: 1.27 |
| GCUUCAAGAGACAAAACUCTT against Wsb1 | inactive: 0.238 |
| GGAGAUCAUGUUUAAGAAUTT against Nicn1 | inactive: 0.00115 |
| GGAAUGCUUUAUAAGUACATT against A930031F18Rik | inactive: -1.29 |
| GGCUCUGGUGAACUACAUGTT against Olfr1378 | inactive: -0.501 |
| GGAAUGACCAAGAAACAACTT against Recql4 | inactive: -0.392 |
| GGAUCAAAAACACAUACUUTT against Emr4 | inactive: -1.79 |
| GGCCCGGAAACCUUUGCAUTT against Efna4 | inactive: -0.0635 |
| GCUUGUCAAGUUUGUGAGCTT against Sec14l4 | inactive: -0.515 |
| CCUACUCUAUCCCAAGGUCTT against 1700027D21Rik | inactive: 1.08 |
| GCUUGAUGGUAAAAAGGUUTT against Spg3a | inactive: 0.836 |
| GGAGACCUCAGCUGAUAUUTT against 1110006I15Rik | inactive: 0.669 |
| GGGUUGGCUGAGGUAAUGGTT against G431004K08Rik | inactive: -0.874 |
| GGCUGCUUAACCUUGAUAATT against 4932412H11Rik | inactive: -2.24 |

Some of the entries above in a different format:
Sequence	z-score
GCGAGAAUCUUUUUGAGCUTT against Rpgrip1	inactive: -0.554
GGCCAGAAAGGCAGCAAAGTT against Msgn1	inactive: 1.99
GGUCUGUAAGCUACCUAAUTT against B430216B18Rik	inactive: 1.53

Given with bars between the fields: entries from further up
Sequence | z-score
GCUUGAUGGUAAAAAGGUUTT against Spg3a | inactive: 0.836
GGAGACCUCAGCUGAUAUUTT against 1110006I15Rik | inactive: 0.669

(continued)

| Sequence | z-score |
| --- | --- |
| GGGCAAAACCAUCUUCCGGTT against Scn5a | inactive: 0.0326 |
| GGGUAUUCUUUCAAUCAUATT against Fgf12 | inactive: -1.32 |
| GGCUCUUGUUGUGAAGAAGTT against Tm4sf8 | inactive: -0.48 |
| GGUCAAAGUCUAGGAGUUUTT against Spp1 | inactive: 0.364 |
| GCUGAAUCACUACCAGUCATT against Zfp462 | inactive: 0.0788 |
| CCUCAUGUUAAUCUGGAGATT against Gabre | inactive: -0.848 |
| GGAAGAUCUGAAGUCAAUCTT against Mvk | inactive: 0.321 |
| GCAAACAAUGCAACAAGCATT against Adam1b | inactive: 0.273 |
| CCUCACCAGGUAAAUUUUUTT against Ssa2 | inactive: 0.157 |
| GGCUUUCAAGACACUUCUUTT against Ccl6 | inactive: 0.258 |
| GGCAUCAAUAACUCAACAUTT against Slc5a8 | inactive: 0.653 |
| GGAUGACAGUGGGAAGAAGTT against 1110029E03Rik | inactive: 0.305 |
| GGAUUAGAGGUUAUGGUAATT against A630098G03Rik | inactive: -1.61 |
| CGUGGAAAGAAAAUUAUCATT against Psmd11 | inactive: -2.85 |
| GGGUGGAAGAAAGGUAAAGTT against Cd68 | inactive: -0.876 |
| GGCACGAAGUCCGAGAAAUTT against Hs2st1 | inactive: -0.726 |
| CCAUCGUCUAUCAUUUAGUTT against Six4 | inactive: 1.14 |
| GGUUCUAAUUAGAGAAACATT against Tcte1 | inactive: 0.0177 |
| CCGUAUGGACUGGUUUACUTT against Chrdl1 | inactive: 0.484 |
| GGAAGAUUUCCUCUCCAAGTT against Dnajd1 | inactive: -0.48 |
| CCAACCUAAACAAUGCAUUTT against Actn4 | inactive: -0.603 |
| GGCAACUUCAUGGGUUUCATT against Tyr | inactive: 0.142 |
| GGAUUUGAUUCCGCCAACGTT against Pon2 | inactive: -0.0028 |
| GCCAAGUGGUGACAUCAACTT against Ralgds | inactive: -0.711 |
